Source: the supplement of paper PMC10849652
The list shows a part of the results.

Protein sequences, listed by entry. Tags and fused reporters are not part of them. Lines headed by an entry give the natural chain unless they say otherwise; changes in a name come on top.
UniProt Q86XR7, whole entry, looked up: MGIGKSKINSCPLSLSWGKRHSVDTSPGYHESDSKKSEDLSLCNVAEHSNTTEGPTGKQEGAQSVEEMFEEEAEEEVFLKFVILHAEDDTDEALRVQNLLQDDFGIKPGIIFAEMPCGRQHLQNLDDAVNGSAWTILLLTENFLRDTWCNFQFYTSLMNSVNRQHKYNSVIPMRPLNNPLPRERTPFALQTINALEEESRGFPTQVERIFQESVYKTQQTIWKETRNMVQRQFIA
UniProt Q9BTF0: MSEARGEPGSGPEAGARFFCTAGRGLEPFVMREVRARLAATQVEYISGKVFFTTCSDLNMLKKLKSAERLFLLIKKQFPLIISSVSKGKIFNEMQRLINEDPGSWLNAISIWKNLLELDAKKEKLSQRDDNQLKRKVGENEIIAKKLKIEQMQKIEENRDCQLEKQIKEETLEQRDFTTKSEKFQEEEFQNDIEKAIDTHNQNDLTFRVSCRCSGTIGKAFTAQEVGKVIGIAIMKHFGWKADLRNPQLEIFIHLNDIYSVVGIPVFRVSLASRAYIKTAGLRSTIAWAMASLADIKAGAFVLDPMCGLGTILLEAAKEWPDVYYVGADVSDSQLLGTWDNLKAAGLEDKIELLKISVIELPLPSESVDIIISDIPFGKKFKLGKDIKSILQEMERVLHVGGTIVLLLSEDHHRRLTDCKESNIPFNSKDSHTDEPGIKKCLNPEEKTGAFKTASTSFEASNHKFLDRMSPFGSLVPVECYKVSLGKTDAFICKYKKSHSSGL
UniProt Q9UM00: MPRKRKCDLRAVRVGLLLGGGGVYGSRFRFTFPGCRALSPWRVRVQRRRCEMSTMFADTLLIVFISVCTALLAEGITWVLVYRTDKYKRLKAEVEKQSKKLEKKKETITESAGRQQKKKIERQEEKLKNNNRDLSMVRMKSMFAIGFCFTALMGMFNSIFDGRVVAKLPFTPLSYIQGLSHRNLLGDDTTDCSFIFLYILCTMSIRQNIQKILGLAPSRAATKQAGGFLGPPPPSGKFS
UniProt Q969X1: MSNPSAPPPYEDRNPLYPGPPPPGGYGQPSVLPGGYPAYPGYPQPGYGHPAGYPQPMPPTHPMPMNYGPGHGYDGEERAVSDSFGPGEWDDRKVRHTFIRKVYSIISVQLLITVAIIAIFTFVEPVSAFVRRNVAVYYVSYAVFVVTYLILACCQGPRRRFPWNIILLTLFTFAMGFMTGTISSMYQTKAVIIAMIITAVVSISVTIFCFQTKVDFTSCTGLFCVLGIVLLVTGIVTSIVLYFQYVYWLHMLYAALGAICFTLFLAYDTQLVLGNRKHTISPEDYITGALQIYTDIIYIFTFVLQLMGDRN
UniProt Q9BXJ8: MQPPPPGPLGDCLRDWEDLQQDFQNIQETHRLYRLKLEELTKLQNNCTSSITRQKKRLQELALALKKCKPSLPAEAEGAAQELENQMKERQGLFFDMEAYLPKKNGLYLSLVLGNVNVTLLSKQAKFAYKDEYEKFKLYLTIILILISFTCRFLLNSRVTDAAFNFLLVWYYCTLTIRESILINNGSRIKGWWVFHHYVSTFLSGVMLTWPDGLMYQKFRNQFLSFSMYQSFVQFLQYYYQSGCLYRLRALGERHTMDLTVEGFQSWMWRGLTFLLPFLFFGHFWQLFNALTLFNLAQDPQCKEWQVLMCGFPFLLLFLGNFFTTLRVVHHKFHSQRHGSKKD
UniProt Q9NPL8: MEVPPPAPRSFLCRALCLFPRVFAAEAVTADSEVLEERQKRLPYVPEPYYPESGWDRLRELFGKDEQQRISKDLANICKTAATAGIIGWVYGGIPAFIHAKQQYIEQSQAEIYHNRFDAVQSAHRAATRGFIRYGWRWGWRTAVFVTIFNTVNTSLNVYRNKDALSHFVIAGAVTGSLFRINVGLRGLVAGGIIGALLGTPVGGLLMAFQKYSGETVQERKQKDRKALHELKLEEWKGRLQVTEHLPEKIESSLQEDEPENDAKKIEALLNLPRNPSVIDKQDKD
UniProt O14925: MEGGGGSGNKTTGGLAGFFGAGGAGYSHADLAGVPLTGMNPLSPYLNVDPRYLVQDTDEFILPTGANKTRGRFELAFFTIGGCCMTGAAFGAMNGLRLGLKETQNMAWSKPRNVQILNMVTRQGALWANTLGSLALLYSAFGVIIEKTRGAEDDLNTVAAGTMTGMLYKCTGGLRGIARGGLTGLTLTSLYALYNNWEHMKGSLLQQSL
UniProt Q9UDY2: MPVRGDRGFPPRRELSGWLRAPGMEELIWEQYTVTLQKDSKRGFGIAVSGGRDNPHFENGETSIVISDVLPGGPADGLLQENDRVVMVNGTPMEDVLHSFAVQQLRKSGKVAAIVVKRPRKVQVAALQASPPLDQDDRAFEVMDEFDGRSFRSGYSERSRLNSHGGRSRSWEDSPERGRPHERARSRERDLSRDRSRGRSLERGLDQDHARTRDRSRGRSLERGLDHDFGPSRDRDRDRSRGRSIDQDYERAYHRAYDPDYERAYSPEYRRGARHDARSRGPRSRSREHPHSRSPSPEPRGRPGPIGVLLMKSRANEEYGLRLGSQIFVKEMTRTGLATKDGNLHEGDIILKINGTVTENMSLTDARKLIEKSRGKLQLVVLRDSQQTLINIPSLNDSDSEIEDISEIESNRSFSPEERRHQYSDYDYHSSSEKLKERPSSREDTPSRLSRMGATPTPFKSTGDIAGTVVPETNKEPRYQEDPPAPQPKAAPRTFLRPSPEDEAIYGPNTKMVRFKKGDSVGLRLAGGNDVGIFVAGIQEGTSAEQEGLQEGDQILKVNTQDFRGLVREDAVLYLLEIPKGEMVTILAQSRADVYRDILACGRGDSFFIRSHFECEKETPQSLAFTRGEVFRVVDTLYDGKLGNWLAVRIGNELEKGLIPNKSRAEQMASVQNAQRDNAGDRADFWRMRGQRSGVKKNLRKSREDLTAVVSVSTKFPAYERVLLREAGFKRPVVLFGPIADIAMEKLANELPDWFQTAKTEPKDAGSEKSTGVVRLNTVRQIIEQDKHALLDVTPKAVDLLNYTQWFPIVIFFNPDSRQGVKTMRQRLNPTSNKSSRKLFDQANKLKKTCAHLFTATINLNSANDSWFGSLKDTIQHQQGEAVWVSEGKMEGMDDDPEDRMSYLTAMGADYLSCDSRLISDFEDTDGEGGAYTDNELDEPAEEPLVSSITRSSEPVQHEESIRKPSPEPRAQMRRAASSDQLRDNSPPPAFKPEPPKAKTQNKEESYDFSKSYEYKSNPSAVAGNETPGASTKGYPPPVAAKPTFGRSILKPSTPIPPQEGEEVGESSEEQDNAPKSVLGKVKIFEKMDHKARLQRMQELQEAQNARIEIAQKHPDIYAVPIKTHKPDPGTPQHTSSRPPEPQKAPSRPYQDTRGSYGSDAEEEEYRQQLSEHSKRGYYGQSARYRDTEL
UniProt Q9H7F4: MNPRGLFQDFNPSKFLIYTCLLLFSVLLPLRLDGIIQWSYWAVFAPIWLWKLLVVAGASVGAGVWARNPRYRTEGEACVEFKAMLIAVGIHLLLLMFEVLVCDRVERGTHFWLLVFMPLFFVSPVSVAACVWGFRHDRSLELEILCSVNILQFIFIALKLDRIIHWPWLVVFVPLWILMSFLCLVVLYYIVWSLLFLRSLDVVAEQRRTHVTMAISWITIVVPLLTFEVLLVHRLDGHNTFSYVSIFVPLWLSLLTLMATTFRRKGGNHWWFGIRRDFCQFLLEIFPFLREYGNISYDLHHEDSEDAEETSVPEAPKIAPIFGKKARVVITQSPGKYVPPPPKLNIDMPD
UniProt Q92544: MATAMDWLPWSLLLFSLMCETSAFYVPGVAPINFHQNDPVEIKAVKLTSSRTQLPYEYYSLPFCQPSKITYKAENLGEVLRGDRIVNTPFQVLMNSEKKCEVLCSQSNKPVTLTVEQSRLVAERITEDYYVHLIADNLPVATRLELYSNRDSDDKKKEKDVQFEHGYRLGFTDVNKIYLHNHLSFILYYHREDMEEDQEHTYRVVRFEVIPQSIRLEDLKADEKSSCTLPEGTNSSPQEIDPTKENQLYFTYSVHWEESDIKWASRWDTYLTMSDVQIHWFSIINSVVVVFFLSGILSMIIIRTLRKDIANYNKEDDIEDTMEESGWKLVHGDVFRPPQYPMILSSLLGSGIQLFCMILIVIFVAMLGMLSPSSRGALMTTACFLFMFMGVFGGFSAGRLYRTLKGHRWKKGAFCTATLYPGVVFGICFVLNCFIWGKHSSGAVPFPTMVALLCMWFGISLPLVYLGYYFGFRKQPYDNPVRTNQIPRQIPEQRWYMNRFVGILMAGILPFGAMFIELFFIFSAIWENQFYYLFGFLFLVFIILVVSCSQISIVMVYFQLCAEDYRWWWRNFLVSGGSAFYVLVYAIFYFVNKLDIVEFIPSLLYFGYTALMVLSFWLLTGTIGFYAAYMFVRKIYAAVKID
UniProt Q5U3C3: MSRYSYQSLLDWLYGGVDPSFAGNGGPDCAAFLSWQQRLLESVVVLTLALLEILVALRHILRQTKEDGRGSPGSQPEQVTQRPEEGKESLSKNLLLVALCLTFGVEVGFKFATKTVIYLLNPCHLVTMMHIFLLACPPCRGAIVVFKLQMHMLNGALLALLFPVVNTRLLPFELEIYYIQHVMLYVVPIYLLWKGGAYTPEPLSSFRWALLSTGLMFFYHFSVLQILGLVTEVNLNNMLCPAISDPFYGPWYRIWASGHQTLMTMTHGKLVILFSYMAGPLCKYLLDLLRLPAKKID
UniProt P55061, whole entry, looked up: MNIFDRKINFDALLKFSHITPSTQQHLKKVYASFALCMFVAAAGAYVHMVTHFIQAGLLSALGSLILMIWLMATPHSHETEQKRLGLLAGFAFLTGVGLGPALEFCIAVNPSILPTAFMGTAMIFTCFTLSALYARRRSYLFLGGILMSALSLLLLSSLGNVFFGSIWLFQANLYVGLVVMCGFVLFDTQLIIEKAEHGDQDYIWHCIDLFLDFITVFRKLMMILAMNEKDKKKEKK
UniProt P52888, whole entry, looked up: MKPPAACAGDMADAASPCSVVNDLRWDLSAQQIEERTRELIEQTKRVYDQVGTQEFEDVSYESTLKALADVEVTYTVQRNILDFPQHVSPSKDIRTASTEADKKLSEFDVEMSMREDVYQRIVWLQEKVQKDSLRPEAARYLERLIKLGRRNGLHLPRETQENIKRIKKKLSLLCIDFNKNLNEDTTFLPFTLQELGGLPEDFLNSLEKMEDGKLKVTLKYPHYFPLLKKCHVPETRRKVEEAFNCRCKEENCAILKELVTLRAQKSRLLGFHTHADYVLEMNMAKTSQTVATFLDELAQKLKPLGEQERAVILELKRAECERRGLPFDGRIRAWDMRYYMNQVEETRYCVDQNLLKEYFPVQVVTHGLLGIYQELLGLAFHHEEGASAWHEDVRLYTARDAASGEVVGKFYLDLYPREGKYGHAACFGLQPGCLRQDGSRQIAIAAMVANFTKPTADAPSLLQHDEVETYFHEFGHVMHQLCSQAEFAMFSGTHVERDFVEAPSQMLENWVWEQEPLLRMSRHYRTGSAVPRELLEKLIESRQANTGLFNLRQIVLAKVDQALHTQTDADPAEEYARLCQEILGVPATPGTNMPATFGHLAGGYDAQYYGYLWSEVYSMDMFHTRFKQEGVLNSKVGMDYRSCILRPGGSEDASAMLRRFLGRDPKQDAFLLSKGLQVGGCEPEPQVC
UniProt Q9BVC6: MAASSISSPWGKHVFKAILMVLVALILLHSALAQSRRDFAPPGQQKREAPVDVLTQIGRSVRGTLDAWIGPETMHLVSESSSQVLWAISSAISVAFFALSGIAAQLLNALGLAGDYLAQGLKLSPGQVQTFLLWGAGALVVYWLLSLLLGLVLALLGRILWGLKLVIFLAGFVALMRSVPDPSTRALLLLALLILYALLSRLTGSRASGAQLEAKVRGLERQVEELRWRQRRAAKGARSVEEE
UniProt Q04727: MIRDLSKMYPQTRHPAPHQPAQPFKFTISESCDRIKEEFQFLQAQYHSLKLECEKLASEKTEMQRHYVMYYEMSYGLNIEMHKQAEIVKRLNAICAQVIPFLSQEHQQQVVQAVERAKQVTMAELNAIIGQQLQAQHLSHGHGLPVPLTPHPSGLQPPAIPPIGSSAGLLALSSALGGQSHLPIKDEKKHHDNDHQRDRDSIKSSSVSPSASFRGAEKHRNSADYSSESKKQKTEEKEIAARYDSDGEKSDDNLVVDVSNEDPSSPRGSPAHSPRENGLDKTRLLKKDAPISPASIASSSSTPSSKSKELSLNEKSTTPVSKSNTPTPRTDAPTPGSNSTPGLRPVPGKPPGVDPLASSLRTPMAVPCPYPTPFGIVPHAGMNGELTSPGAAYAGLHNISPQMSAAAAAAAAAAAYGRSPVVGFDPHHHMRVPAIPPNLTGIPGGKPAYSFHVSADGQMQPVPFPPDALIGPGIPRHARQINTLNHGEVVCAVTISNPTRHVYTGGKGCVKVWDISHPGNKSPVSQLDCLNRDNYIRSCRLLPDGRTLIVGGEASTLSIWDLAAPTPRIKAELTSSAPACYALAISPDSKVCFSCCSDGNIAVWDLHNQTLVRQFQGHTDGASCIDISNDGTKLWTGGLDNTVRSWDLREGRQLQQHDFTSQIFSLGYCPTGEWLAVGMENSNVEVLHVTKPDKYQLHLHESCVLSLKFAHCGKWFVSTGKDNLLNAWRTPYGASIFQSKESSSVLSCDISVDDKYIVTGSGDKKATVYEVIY

compound: CNC(=O)c1ccc(Nc2ncc(C(F)(F)F)c(NCc3nccnc3N(C)S(C)(=O)=O)n2)cc1 [defactinib]; assay: log2 fold change, soluble protein after heating vs DMSO (PISA); higher = thermal stabilisation; K562 lysate, 10 uM; active = over 0.2 and 3.5 SD of the protein, either way, in both replicates (recomputed)
In short: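 The values are log-two fold changes in thermal stability compared with solvent controls and come from duplicates. They were obtained by TMTpro 16plex LC-MS/MS, with channel sums equalised, on the supernatant after 21,000xg for 90 min. That supernatant came from crude K562 extract at 1 mg/mL protein treated with 10 μM compound for 30 min, heated for 3 min across 48°C-58°C, pooled and brought to 0.5% NP-40 at 4°C.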

| Target | log2 fold change |
| --- | --- |
| TICAM2 isoform 2 (UniProt Q86XR7) | inactive: -0.018 |
| THUMPD2 (UniProt Q9BTF0) | inactive: -0.016 |
| TMCO1 (UniProt Q9UM00) | inactive: -0.002 |
| TGOLN2 isoform 7 (UniProt O43493) | inactive: 0.005 |
| TMBIM1 (UniProt Q969X1) | inactive: 0.007 |
| TMEM120A (UniProt Q9BXJ8) | inactive: 0.166 |
| TIMMDC1 (UniProt Q9NPL8) | inactive: -0.013 |
| TIMM23 (UniProt O14925) | inactive: -0.063 |
| TJP2 isoform 7 (UniProt Q9UDY2) | inactive: -0.007 |
| TMEM185B (UniProt Q9H7F4) | inactive: 0.057 |
| TM9SF4 (UniProt Q92544) | inactive: 0.025 |
| TMEM168 (UniProt Q9H0V1) | inactive: 0.076 |
| TMEM164 (UniProt Q5U3C3) | inactive: 0.007 |
| THYN1 (UniProt Q9P016) | inactive: 0.044 |
| THNSL1 (UniProt Q8IYQ7) | inactive: -0.036 |
| TMBIM6 isoform 2 (UniProt P55061) | inactive: 0.084 |
| THOP1 (UniProt P52888) | inactive: -0.006 |
| TMCO6 isoform 2 (UniProt Q96DC7) | inactive: 0.053 |
| TMEM109 (UniProt Q9BVC6) | inactive: 0.013 |
| THOC5 (UniProt Q13769) | inactive: -0.008 |
| THOC1 (UniProt Q96FV9) | inactive: 0.009 |
| TLE4 isoform 3 (UniProt Q04727) | inactive: 0.049 |

Pulled one by one from the entries so far, two records:

| Target | log2 fold change |
| --- | --- |
| TLE4 isoform 3 (UniProt Q04727) | inactive: 0.049 |
| TGOLN2 isoform 7 (UniProt O43493) | inactive: 0.005 |
